# Data as given in PubChem BioAssay AID248 (DTP/NCI, 2004).
# The list is a part of this screen's results and no random one: it gathers tests that were run many times, whatever their T/C, doses with no T/C, and many T/C values between a quarter and a half above the control. Further doses and runs are listed elsewhere. T/C gives the treated animals as a percentage of the vehicle group. Some entries give survivors of the animals treated and no T/C: the source holds a T/C of zero for them, seemingly a mark for toxic or unscored doses. Some doses without a T/C left all or most animals alive at the check, yet need not have been tolerated: survival well below the control is almost never listed, so the zero probably covers shortened survival too. Counts of survivors are from the toxicity check (mostly the fifth day) where no day follows; animals may have died later. Schedules are NCI's codes, read here as Q, the interval in days (D) or hours (H), X, the number of doses. Some entries were tested several times; their values stand side by side, smallest first. Some schedules carry Z or #; the key to these is not given. Where survival is the endpoint, the PubChem record calls one and a half times the control and up active, and a quarter to a half above the control has no call in these data; cut-offs in other NCI protocols can differ. Some T/C values are followed by the survivors on the day toxicity was checked, most often the fifth; without a count, all were alive then. Additions like (4×) give the number of equal values in this list.
# Tested on: L1210 leukemia ip in BDF1 mice, survival T/C
# Test: NCI In Vivo Anticancer Drug Screen. Data for tumor model L1210 Leukemia (intraperitoneal) in B6D2F1 (BDF1) mice
# Settings: T/C endpoint: mean survival time, higher T/C = longer survival
# [1] = dose: 3200.0 mg/kg/injection, schedule: Q01DX010 (ip), vehicle: saline
structure (smiles),measurement,setting,value
O=c1cnn(C2OC(CO)C(O)C2O)c(=O)[nH]1 (centres undefined),survivor count,"dose: 25.0 mg/kg/injection, schedule: Q01DX006 (iv), vehicle: saline",3 of 6
same,T/C,"dose: 32.0 mg/kg/injection, schedule: Q01DX009 (ip), vehicle: saline",146 % of control
same,T/C,"dose: 50.0 mg/kg/injection, schedule: Q01DX006 (iv), vehicle: saline",134 % of control
same,T/C,"dose: 50.0 mg/kg/injection, schedule: Q01DX010 (ip), vehicle: saline",137 % of control
same,T/C,"dose: 50.0 mg/kg/injection, schedule: Q01DX Z (oral), vehicle: saline",136 % of control
same,T/C,"dose: 50.0 mg/kg/injection, schedule: Q#A X Z (ip), vehicle: other",138 % of control
same,T/C,"dose: 64.0 mg/kg/injection, schedule: Q01DX009 (ip), vehicle: saline",139 % of control
same,T/C,"dose: 64.0 mg/kg/injection, schedule: Q01DX009 (oral), vehicle: saline",145 % of control
same,T/C,"dose: 75.0 mg/kg/injection, schedule: Q01DX009 (ip), vehicle: saline",142 % of control
same,T/C,"dose: 75.0 mg/kg/injection, schedule: Q01DX009 (oral), vehicle: saline",143 % of control
same,T/C,"dose: 75.0 mg/kg/injection, schedule: Q01DX009 (sc), vehicle: saline",135 % of control
same,T/C,"dose: 75.0 mg/kg/injection, schedule: Q03DX Z (ip), vehicle: saline",148 % of control
same,T/C,"dose: 100.0 mg/kg/injection, schedule: Q01DX006 (iv), vehicle: saline",129 % of control
same,T/C,"dose: 100.0 mg/kg/injection, schedule: Q01DX010 (ip), vehicle: saline",130 % of control
same,T/C,"dose: 100.0 mg/kg/injection, schedule: Q01DX Z (im), vehicle: saline",140 % of control
same,T/C,"dose: 100.0 mg/kg/injection, schedule: Q01DX Z (ip), vehicle: methylcellulose (MC)",131 and 134 % of control
same,T/C,"dose: 100.0 mg/kg/injection, schedule: Q01DX Z (ip), vehicle: saline",147 % of control
same,T/C,"dose: 100.0 mg/kg/injection, schedule: Q01DX Z (oral), vehicle: other",144 % of control
same,T/C,"dose: 100.0 mg/kg/injection, schedule: Q#A X Z (ip), vehicle: other",145 % of control
same,T/C,"dose: 128.0 mg/kg/injection, schedule: Q01DX009 (ip), vehicle: saline",134 % of control
same,T/C,"dose: 128.0 mg/kg/injection, schedule: Q01DX009 (oral), vehicle: saline",146 % of control
same,T/C,"dose: 128.0 mg/kg/injection, schedule: Q03HX016 (ip), vehicle: saline",136 % of control
same,T/C,"dose: 150.0 mg/kg/injection, schedule: Q01DX009 (ip), vehicle: saline",136 % of control
same,T/C,"dose: 150.0 mg/kg/injection, schedule: Q01DX009 (oral), vehicle: saline",138 % of control
same,T/C,"dose: 150.0 mg/kg/injection, schedule: Q01DX009 (sc), vehicle: saline",129 % of control
same,T/C,"dose: 150.0 mg/kg/injection, schedule: Q03DX Z (ip), vehicle: saline",140 % of control
same,T/C,"dose: 200.0 mg/kg/injection, schedule: Q01DX006 (iv), vehicle: saline",129 % of control
same,T/C,"dose: 200.0 mg/kg/injection, schedule: Q01DX009 (ip), vehicle: saline",125 % of control
same,T/C,"dose: 200.0 mg/kg/injection, schedule: Q01DX010 (ip), vehicle: saline","124, 127, 137, 140, 143, 156 % of control"
same,T/C,"dose: 200.0 mg/kg/injection, schedule: Q01DX Z (im), vehicle: saline",139 % of control
same,T/C,"dose: 200.0 mg/kg/injection, schedule: Q01DX Z (ip), vehicle: methylcellulose (MC)","114, 131, 132 (2×), 145 % of control"
same,T/C,"dose: 200.0 mg/kg/injection, schedule: Q01DX Z (ip), vehicle: saline",134 % of control
same,T/C,"dose: 200.0 mg/kg/injection, schedule: Q01DX Z (oral), vehicle: other",142 % of control
same,T/C,"dose: 200.0 mg/kg/injection, schedule: Q01DX Z (oral), vehicle: saline",140 % of control
same,T/C,"dose: 200.0 mg/kg/injection, schedule: Q#A X Z (ip), vehicle: other",145 % of control
same,T/C,"dose: 256.0 mg/kg/injection, schedule: Q01DX009 (ip), vehicle: saline",143 % of control
same,T/C,"dose: 256.0 mg/kg/injection, schedule: Q01DX009 (oral), vehicle: saline",147 % of control
same,T/C,"dose: 256.0 mg/kg/injection, schedule: Q03HX016 (oral), vehicle: saline",143 % of control
same,T/C,"dose: 268.0 mg/kg/injection, schedule: Q01DX009 (ip), vehicle: saline, evaluated on day 5",125 % of control
same,T/C,"dose: 268.0 mg/kg/injection, schedule: Q01DX009 (ip), vehicle: saline, evaluated on day 60",125 % of control
same,T/C,"dose: 300.0 mg/kg/injection, schedule: Q01DX009 (ip), vehicle: saline",137 % of control
same,T/C,"dose: 300.0 mg/kg/injection, schedule: Q01DX009 (sc), vehicle: saline",140 % of control
same,T/C,"dose: 300.0 mg/kg/injection, schedule: Q01DX Z (ip), vehicle: methylcellulose (MC)",134 and 137 % of control
same,T/C,"dose: 300.0 mg/kg/injection, schedule: Q03DX Z (ip), vehicle: saline",127 % of control
same,T/C,"dose: 400.0 mg/kg/injection, schedule: Q01DX006 (iv), vehicle: saline",135 % of control
same,T/C,"dose: 400.0 mg/kg/injection, schedule: Q01DX009 (ip), vehicle: saline, evaluated on day 5",128 % of control
same,T/C,"dose: 400.0 mg/kg/injection, schedule: Q01DX009 (ip), vehicle: saline, evaluated on day 30",125 % of control
same,T/C,"dose: 400.0 mg/kg/injection, schedule: Q01DX009 (ip), vehicle: saline, evaluated on day 60",129 % of control
same,T/C,"dose: 400.0 mg/kg/injection, schedule: Q01DX010 (ip), vehicle: saline",128 (2×) and 129 % of control (2×)
same,T/C,"dose: 400.0 mg/kg/injection, schedule: Q01DX Z (im), vehicle: saline",139 % of control
same,T/C,"dose: 400.0 mg/kg/injection, schedule: Q01DX Z (ip), vehicle: saline",147 % of control
same,T/C,"dose: 400.0 mg/kg/injection, schedule: Q01DX Z (oral), vehicle: other",135 % of control
same,T/C,"dose: 400.0 mg/kg/injection, schedule: Q#A X Z (ip), vehicle: other",132 % of control
same,T/C,"dose: 450.0 mg/kg/injection, schedule: Q01DX Z (ip), vehicle: methylcellulose (MC)","124, 125, 128, 134 % of control"
same,T/C,"dose: 600.0 mg/kg/injection, schedule: Q01DX009 (ip), vehicle: saline, evaluated on day 5",131 % of control
same,T/C,"dose: 600.0 mg/kg/injection, schedule: Q01DX009 (ip), vehicle: saline, evaluated on day 40",127 % of control
same,T/C,"dose: 600.0 mg/kg/injection, schedule: Q01DX009 (ip), vehicle: saline, evaluated on day 60",132 % of control
same,T/C,"dose: 600.0 mg/kg/injection, schedule: Q01DX009 (sc), vehicle: saline",126 % of control
same,T/C,"dose: 600.0 mg/kg/injection, schedule: Q03DX Z (ip), vehicle: other",125 % of control
same,T/C,"dose: 600.0 mg/kg/injection, schedule: Q03DX Z (ip), vehicle: saline",148 % of control
same,T/C,"dose: 600.0 mg/kg/injection, schedule: Q## X024 (ip), vehicle: saline",146 % of control
same,T/C,"dose: 675.0 mg/kg/injection, schedule: Q01DX Z (ip), vehicle: methylcellulose (MC)",134 and 139 % of control
same,T/C,"dose: 800.0 mg/kg/injection, schedule: Q01DX006 (iv), vehicle: saline",127 % of control [5 of 6 alive]
same,T/C,"dose: 800.0 mg/kg/injection, schedule: Q01DX010 (ip), vehicle: saline","124, 131, 133, 153 % of control"
same,T/C,"dose: 800.0 mg/kg/injection, schedule: Q01DX Z (ip), vehicle: methylcellulose (MC)",135 and 140 % of control
same,T/C,"dose: 800.0 mg/kg/injection, schedule: Q01DX Z (ip), vehicle: saline",137 % of control
same,T/C,"dose: 800.0 mg/kg/injection, schedule: Q01DX Z (oral), vehicle: other",132 % of control
same,T/C,"dose: 800.0 mg/kg/injection, schedule: Q01DX Z (oral), vehicle: saline",136 % of control
same,T/C,"dose: 1200.0 mg/kg/injection, schedule: Q01DX001 (ip), vehicle: saline",139 % of control
same,T/C,"dose: 1200.0 mg/kg/injection, schedule: Q01DX005 (ip), vehicle: saline",129 % of control
same,T/C,"dose: 1200.0 mg/kg/injection, schedule: Q03DX Z (ip), vehicle: saline",130 % of control
same,T/C,"dose: 1200.0 mg/kg/injection, schedule: Q## X016 (ip), vehicle: saline",138 % of control
same,T/C,"dose: 1400.0 mg/kg/injection, schedule: Q07DX Z (ip), vehicle: saline",142 % of control
same,survivor count,"dose: 1600.0 mg/kg/injection, schedule: Q01DX006 (iv), vehicle: saline",1 of 6
same,T/C,"dose: 1600.0 mg/kg/injection, schedule: Q01DX010 (ip), vehicle: saline","95, 112 [5 of 6 alive], 113, 168 % of control"
same,T/C,"dose: 1600.0 mg/kg/injection, schedule: Q01DX Z (im), vehicle: saline",128 % of control
same,T/C,"dose: 1600.0 mg/kg/injection, schedule: Q01DX Z (ip), vehicle: saline",134 % of control
same,survivor count,"dose: 1600.0 mg/kg/injection, schedule: Q#A X Z (ip), vehicle: saline",5 of 6
same,T/C,"dose: 2048.0 mg/kg/injection, schedule: Q03HX016 (oral), vehicle: saline",147 % of control
same,T/C,"dose: 2400.0 mg/kg/injection, schedule: Q01DX001 (ip), vehicle: saline",139 % of control
same,T/C,"dose: 2400.0 mg/kg/injection, schedule: Q03DX Z (ip), vehicle: saline",133 and 142 % of control
same,T/C,"dose: 2400.0 mg/kg/injection, schedule: Q## X003 (ip), vehicle: saline",128 % of control
same,T/C,"dose: 2400.0 mg/kg/injection, schedule: Q## X008 (ip), vehicle: saline",126 % of control
same,T/C,"dose: 2400.0 mg/kg/injection, schedule: Q## X016 (ip), vehicle: saline",135 % of control
same,T/C,"dose: 2800.0 mg/kg/injection, schedule: Q01DX001 (ip), vehicle: saline",127 % of control
same,T/C,"dose: 2800.0 mg/kg/injection, schedule: Q07DX Z (ip), vehicle: saline",125 % of control
same,survivor count,"dose: 3200.0 mg/kg/injection, schedule: Q01DX006 (iv), vehicle: saline",3 of 6
same,T/C,[1],93 and 142 % of control
same,survivor count,[1],5 of 6 and 6 of 6
same,survivor count,"dose: 3200.0 mg/kg/injection, schedule: Q01DX Z (ip), vehicle: saline",6 of 6
same,survivor count,"dose: 3200.0 mg/kg/injection, schedule: Q01DX Z (oral), vehicle: other",7 of 7
same,survivor count,"dose: 3200.0 mg/kg/injection, schedule: Q01DX Z (oral), vehicle: saline",5 of 6
same,T/C,"dose: 4800.0 mg/kg/injection, schedule: Q03DX Z (ip), vehicle: saline",144 % of control
same,T/C,"dose: 5600.0 mg/kg/injection, schedule: Q07DX Z (ip), vehicle: other",132 % of control
